Test results reported in paper PMC11730294.
No constants are given. Whether binding was seen depends on the method and setting. Binding seen in cells or lysates may run through a third protein. Some results given as binding are weak or reduced against the parent protein; the word gives no strength. For part of these data: Sequences can lack the tags named with a protein. Values belong to the molecule of their own block, whether it stands above or below them.

Amino acid sequences for entries named in this document (tags omitted). A change or cut given only in a name is not applied to a line headed by its entry.
UniProt P51809: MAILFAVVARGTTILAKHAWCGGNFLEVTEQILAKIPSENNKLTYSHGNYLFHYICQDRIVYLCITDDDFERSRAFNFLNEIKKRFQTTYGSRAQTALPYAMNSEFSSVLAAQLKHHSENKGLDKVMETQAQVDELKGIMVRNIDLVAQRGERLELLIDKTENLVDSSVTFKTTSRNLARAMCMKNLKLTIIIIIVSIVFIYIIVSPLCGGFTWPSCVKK
UniProt Q01628: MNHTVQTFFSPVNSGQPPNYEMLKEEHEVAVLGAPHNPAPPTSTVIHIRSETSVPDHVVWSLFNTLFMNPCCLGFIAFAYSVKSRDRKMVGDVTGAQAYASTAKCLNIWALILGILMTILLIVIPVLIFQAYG
UniProt Q12846: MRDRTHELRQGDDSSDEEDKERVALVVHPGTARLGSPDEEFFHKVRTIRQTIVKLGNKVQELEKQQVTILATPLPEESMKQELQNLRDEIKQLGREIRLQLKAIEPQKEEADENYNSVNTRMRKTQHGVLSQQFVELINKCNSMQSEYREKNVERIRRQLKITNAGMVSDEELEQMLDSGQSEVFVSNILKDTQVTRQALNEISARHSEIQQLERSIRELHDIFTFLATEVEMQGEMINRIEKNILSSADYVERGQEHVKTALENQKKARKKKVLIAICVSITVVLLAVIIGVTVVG

Tests used:
[1] = target: T1, STX7-HA (syntaxin 7), in HEK293T (human) (UniProt O15400); assay: co-IP; HEK293T stably expressing Empty Vector, IFITM3 WT-FLAG or IFITM3 G95L-FLAG, co-transfected with STX7-HA and VAMP8-Myc or VAMP7-Myc; STX7-HA immunoprecipitated with anti-HA; blot anti-HA, anti-FLAG, anti-Myc
T1 sequence: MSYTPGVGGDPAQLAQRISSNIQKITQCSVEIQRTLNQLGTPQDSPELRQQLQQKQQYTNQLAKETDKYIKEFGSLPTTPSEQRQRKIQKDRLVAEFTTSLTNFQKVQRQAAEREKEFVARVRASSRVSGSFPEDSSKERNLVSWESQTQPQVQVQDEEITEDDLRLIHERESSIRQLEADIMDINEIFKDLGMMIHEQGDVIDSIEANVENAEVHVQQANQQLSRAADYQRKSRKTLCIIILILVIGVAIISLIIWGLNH

[2] = target: VAMP7-myc (human) (UniProt P51809); assay: co-IP; HEK293T co-transfected with two tagged proteins; the HA- or Myc-tagged SNARE immunoprecipitated (anti-HA or anti-Myc on Dynabeads, 3 h, 4 °C) from whole cell lysate (50 mM Tris-HCl pH 7.4, 1.0% Triton X-100, 150 mM NaCl, 1 mM EDTA); blot anti-FLAG
[3] = target: T2, VAMP8-HA (human) (UniProt Q9BV40); assay: as above
T2 sequence: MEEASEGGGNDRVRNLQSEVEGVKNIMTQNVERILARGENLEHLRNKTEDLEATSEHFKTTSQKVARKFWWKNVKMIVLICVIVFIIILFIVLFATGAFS

[4] = target: T3, STX8-HA (syntaxin 8) (human) (UniProt Q9UNK0); assay: as above
T3 sequence: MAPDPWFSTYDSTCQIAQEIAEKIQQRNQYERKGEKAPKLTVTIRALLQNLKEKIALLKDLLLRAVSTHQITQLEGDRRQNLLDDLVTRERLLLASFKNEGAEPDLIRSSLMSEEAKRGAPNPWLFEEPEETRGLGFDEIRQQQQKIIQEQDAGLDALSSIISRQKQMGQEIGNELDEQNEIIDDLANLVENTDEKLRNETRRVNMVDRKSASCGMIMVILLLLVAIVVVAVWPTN

[5] = target: T1, STX7-HA (syntaxin 7), in HEK293T (human); assay: as above
[6] = target: T4, STX7-HA (syntaxin 7), in HeLa (human) (UniProt O15400); assay: co-IP; HeLa (WT or IFITM3 KO) transfected with STX7-HA; STX7-HA immunoprecipitated with anti-HA; blot anti-HA, anti-IFITM3, anti-STX8, anti-Vti1b; isotype matched antibody as control
T4 sequence: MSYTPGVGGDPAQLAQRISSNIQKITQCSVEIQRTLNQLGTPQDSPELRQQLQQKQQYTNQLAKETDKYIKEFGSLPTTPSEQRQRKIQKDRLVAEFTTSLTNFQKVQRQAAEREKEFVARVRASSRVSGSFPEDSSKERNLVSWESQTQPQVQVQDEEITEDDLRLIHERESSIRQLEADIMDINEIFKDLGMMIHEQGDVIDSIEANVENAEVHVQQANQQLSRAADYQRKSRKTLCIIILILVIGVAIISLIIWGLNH

[7] = target: T5, endogenous VAMP8 (HeLa) (human (endogenous in HeLa)) (UniProt Q9BV40); assay: co-IP; HeLa (WT or IFITM3 KO); endogenous STX8, Vti1b, VAMP8 or VAMP7 immunoprecipitated with its antibody from whole cell lysate; blot anti-IFITM3 (and anti-VAMP8 for the STX8 precipitate)
T5 sequence: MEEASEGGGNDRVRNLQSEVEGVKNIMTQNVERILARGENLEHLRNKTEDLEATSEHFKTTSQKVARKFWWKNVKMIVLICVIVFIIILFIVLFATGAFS

[8] = target: T6, endogenous STX8 (HeLa) (human (endogenous in HeLa)) (UniProt Q9UNK0); assay: as above
T6 sequence: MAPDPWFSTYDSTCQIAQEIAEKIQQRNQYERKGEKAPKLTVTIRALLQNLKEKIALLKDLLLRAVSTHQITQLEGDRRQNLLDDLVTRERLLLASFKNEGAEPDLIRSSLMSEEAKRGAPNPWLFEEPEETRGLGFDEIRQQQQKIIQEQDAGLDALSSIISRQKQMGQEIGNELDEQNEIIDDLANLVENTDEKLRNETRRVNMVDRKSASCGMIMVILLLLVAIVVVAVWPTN

[9] = target: endogenous VAMP7 (HeLa) (human (endogenous in HeLa)) (UniProt P51809); assay: as above
[10] = target: T7, endogenous Vti1b (HeLa) (human (endogenous in HeLa)) (UniProt Q9UEU0); assay: as above
T7 sequence: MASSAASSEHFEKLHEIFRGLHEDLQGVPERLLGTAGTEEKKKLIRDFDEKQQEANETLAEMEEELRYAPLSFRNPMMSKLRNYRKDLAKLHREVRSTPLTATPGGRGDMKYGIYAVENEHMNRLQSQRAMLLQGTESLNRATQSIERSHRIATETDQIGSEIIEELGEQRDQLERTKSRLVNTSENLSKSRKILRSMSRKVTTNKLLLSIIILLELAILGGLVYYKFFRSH

[11] = target: IFITM3-FLAG WT (interferon-induced transmembrane protein 3) (human) (UniProt Q01628); assay: co-IP; HEK293T co-transfected with two tagged proteins; the FLAG-tagged CD225 protein (IFITM3 or TUSC5) immunoprecipitated with anti-FLAG from whole cell lysate (50 mM Tris-HCl pH 7.4, 1.0% Triton X-100, 150 mM NaCl, 1 mM EDTA); blot anti-HA or anti-myc
[12] = target: T8, STX7-HA (syntaxin 7), in HEK293T (human), O15400; assay: co-IP; HEK293T stably expressing Empty Vector, IFITM3 WT-FLAG or IFITM3 G95L-FLAG, co-transfected with STX7-HA and VAMP8-Myc or VAMP7-Myc; STX7-HA immunoprecipitated with anti-HA; blot anti-HA, anti-FLAG, anti-Myc; details: remark: other sources report otherwise
T8 chain: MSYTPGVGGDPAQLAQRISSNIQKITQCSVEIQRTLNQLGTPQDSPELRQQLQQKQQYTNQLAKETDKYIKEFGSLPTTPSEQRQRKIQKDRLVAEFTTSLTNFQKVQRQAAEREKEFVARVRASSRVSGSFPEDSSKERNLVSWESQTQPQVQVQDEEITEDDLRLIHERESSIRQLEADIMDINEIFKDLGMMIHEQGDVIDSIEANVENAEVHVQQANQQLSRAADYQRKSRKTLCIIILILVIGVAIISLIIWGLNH

[13] = target: T9, endogenous STX8 (HeLa) (human (endogenous in HeLa)), Q9UNK0; assay: co-IP; HeLa (WT or IFITM3 KO); endogenous STX8, Vti1b, VAMP8 or VAMP7 immunoprecipitated with its antibody from whole cell lysate; blot anti-IFITM3 (and anti-VAMP8 for the STX8 precipitate); details: remark: other sources report otherwise
T9 chain: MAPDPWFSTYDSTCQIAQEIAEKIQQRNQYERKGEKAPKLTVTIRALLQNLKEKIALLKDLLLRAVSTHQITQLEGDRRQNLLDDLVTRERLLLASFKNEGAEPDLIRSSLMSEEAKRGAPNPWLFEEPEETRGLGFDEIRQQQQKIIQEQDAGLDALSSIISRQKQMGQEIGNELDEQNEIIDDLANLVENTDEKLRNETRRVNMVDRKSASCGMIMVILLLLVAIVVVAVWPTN

[14] = target: STX4-HA (syntaxin 4) (UniProt Q12846); assay: co-IP; HEK293T co-transfected with two tagged proteins; the HA- or Myc-tagged SNARE immunoprecipitated (anti-HA or anti-Myc on Dynabeads, 3 h, 4 °C) from whole cell lysate (50 mM Tris-HCl pH 7.4, 1.0% Triton X-100, 150 mM NaCl, 1 mM EDTA); blot anti-FLAG

Molecule: IFITM3-FLAG G95L (from UniProt Q01628 1-133)
binding [1]: no binding
binding [2]: binds
binding [3]: binds

Molecule: IFITM3-FLAG WT (interferon-induced transmembrane protein 3) (from UniProt Q01628 1-133)
binding [1]: binds
binding [2]: binds
binding [4]: binds
binding [5]: binds
binding [3]: binds

binding [6]: binds
binding [7]: binds
binding [8]: binds
binding [9]: binds
binding [10]: binds
Molecule: endogenous IFITM3 (HeLa) (from UniProt Q01628 1-133)

binding [6]: binds
B1: endogenous STX8 (HeLa) (protein, UniProt Q9UNK0 1-236)
chain: MAPDPWFSTYDSTCQIAQEIAEKIQQRNQYERKGEKAPKLTVTIRALLQNLKEKIALLKDLLLRAVSTHQITQLEGDRRQNLLDDLVTRERLLLASFKNEGAEPDLIRSSLMSEEAKRGAPNPWLFEEPEETRGLGFDEIRQQQQKIIQEQDAGLDALSSIISRQKQMGQEIGNELDEQNEIIDDLANLVENTDEKLRNETRRVNMVDRKSASCGMIMVILLLLVAIVVVAVWPTN

binding [11]: binds
B2: STX7-HA (syntaxin 7), in HEK293T (protein, UniProt O15400 1-261)
chain: MSYTPGVGGDPAQLAQRISSNIQKITQCSVEIQRTLNQLGTPQDSPELRQQLQQKQQYTNQLAKETDKYIKEFGSLPTTPSEQRQRKIQKDRLVAEFTTSLTNFQKVQRQAAEREKEFVARVRASSRVSGSFPEDSSKERNLVSWESQTQPQVQVQDEEITEDDLRLIHERESSIRQLEADIMDINEIFKDLGMMIHEQGDVIDSIEANVENAEVHVQQANQQLSRAADYQRKSRKTLCIIILILVIGVAIISLIIWGLNH

binding [12]: binds
B3: VAMP8-Myc, Q9BV40 1-100 (protein)
chain: MEEASEGGGNDRVRNLQSEVEGVKNIMTQNVERILARGENLEHLRNKTEDLEATSEHFKTTSQKVARKFWWKNVKMIVLICVIVFIIILFIVLFATGAFS

binding [13]: binds
B4: endogenous VAMP8 (HeLa), Q9BV40 1-100 (protein)
chain: MEEASEGGGNDRVRNLQSEVEGVKNIMTQNVERILARGENLEHLRNKTEDLEATSEHFKTTSQKVARKFWWKNVKMIVLICVIVFIIILFIVLFATGAFS

binding [14]: binds
B5: TUSC5-FLAG WT (trafficking regulator of GLUT4, TRARG1/TUSC5) (protein, UniProt Q8IXB3 1-177)
chain: MAHPVQSEFPSAQEPGSAAFLDLPEMEILLTKAENKDDKTLNLSKTLSGPLDLEQNSQGLPFKAISEGHLEAPLPRSPSRASSRRASSIATTSYAQDQEAPRDYLILAVVACFCPVWPLNLIPLIISIMSRSSMQQGNVDGARRLGRLARLLSITLIIMGIVIIMVAVTVNFTVQKK
